Binding data for two substances are collected here from paper PMC5080453.

By UniProt entry, the sequences of proteins in these tests, tags left out. Where a name states a change or a piece, a line headed by the entry shows the natural chain unless it says otherwise.
UniProt P13497: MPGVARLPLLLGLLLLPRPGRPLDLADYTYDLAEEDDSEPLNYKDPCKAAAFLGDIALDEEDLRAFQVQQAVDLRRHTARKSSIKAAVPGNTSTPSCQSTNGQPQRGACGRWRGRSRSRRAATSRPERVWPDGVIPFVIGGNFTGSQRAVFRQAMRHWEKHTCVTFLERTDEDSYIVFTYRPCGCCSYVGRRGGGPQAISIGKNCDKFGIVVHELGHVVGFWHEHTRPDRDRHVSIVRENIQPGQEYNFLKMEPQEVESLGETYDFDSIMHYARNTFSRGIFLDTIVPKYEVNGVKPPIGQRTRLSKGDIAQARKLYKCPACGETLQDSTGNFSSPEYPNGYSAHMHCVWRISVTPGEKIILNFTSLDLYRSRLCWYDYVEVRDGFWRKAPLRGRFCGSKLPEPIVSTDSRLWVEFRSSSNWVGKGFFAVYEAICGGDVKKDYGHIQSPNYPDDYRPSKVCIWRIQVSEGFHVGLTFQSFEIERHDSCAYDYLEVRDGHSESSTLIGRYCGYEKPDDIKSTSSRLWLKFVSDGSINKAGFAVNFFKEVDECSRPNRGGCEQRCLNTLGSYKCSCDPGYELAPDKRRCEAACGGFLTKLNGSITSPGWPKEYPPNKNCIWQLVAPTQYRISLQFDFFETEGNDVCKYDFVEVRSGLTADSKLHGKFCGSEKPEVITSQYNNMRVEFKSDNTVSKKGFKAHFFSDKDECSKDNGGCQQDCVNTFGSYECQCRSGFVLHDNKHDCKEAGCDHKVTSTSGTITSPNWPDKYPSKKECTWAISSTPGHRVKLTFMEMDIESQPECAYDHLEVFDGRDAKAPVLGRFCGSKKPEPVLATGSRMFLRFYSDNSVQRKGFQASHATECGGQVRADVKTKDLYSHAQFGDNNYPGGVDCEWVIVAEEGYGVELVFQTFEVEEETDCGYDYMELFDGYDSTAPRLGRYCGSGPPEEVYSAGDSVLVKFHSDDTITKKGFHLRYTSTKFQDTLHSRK
UniProt Q9H2X0: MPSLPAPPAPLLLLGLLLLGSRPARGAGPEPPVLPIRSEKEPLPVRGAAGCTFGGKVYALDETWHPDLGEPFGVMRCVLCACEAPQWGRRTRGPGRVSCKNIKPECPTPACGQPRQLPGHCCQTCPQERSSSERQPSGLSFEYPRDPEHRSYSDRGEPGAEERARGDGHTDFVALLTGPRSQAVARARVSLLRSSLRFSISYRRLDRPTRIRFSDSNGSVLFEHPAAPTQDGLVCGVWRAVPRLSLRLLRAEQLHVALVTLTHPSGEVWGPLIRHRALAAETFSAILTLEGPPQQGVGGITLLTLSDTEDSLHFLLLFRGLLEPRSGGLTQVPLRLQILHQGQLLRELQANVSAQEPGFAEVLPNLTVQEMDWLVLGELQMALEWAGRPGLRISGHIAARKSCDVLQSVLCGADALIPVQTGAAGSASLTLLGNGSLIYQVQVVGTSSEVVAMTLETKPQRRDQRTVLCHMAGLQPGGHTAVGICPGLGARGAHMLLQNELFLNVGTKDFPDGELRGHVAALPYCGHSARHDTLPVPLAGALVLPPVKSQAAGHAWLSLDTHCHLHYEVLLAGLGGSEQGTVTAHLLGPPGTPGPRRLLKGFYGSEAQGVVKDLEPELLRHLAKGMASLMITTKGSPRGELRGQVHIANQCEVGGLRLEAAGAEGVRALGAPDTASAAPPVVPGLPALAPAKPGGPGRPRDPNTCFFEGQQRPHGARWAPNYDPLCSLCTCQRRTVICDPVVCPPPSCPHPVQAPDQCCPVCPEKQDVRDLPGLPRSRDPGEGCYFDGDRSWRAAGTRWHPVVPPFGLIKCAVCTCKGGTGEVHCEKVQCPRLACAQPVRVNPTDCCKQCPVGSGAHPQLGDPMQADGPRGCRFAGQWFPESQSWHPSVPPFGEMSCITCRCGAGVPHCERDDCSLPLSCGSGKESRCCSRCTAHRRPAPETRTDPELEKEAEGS

Experiment [1] deals with T1, human twisted gastrulation (Tsg), native (glycosylated) (human) (UniProt Q9GZX9).
T1 sequence (chain, N-linked glycans (three predicted N-linked glycosylation sites)): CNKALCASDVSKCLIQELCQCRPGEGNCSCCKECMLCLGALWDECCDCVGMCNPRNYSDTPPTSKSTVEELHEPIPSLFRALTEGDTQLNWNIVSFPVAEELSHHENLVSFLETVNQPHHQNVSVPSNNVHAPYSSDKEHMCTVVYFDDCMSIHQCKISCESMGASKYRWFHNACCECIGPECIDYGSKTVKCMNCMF
As to the kind of experiment: SPR; Biacore T200, CM5 chip; 830 RU of Tsg immobilised by amine coupling; 500 nM mTlD or 500 nM mTlDC4C5 injected; 25 °C, 10 mM Hepes, 150 mM NaCl, 3 mM EDTA, 0.005% Tween-20, pH 7.4, 30 μl/min; both purified. For orientation: In SPR one partner is held on a chip, and binding of the other changes the refractive index at the surface.

For another experiment, the target named is mammalian tolloid (mTld) (UniProt P13497). As to the kind of experiment: SPR; Biacore T200, CM5 chip; 2400 RU of mTlD immobilised by amine coupling; 500 nM Tsg or 500 nM ΔN-chordin injected; 25 °C, 10 mM Hepes, 150 mM NaCl, 3 mM EDTA, 0.005% Tween-20, pH 7.4, 30 μl/min; both purified.

No constants are given. Whether binding was seen depends on the method and setting. For some assays here: A result given as binding can be weak or reduced; the word gives no strength.

Turning to “mammalian tolloid (mTld) (from UniProt P13497) (enzyme)”, the binding result in experiment [1] is listed as “no binding (tested: 500 nM)”.
For the substance “ΔN-chordin (human chordin construct lacking the N-terminal part) (from UniProt Q9H2X0) (domain or fragment)”, the binding entry in the experiment with mammalian tolloid (mTld) is reported as “binds”.
